Laboratory results reported in PubChem BioAssay AID493014 (National Center for Advancing Translational Sciences (NCATS), 2011).
Hit rate of the full screen: of about 340,000 compounds, about 170 (0.05%) were called active. Inconclusive results, whose numbers are uncertain, are shown with a selection of clear calls. The call rests on the fitted dose curve; in most records, active means well fitted inhibition curve with a large enough effect in the signal ratio, with a control signal flat (not every such curve was filed as active); inconclusive means small, poorly fitted or top-dose-only effect, or effect the other way, or a change in a side signal; inactive means flat fitted curve, though single readings scatter; the % refers to the signal ratio. Potencies beside an inconclusive call are fits to weak or partial responses and may not hold up.

Assay: qHTS Assay to Find Inhibitors of Chronic Active B-Cell Receptor Signaling;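 on activity change, negative = inhibition: plate controls were basal doxycycline-induced cells for no effect and cells given 10 µM MG132 for full effect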
Details: ABC-DLBCL IkBa-CBG/CBR reporter, luminescence ratio (green luciferase fused to IkBa over red control in TMD8 lymphoma cells), 4 h; activity change, negative = inhibition: at 46.1 µM (top of the series)
Outline: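 Concentration-response series (up to 46 uM) were applied to TMD8 dual-reporter cells for 4 h at 37C with doxycycline. Green/red ratio, after filter-overlap correction, defined %Activity; red signal alone was normalised to basal cells and zero luminescence.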
Potency means the concentration at half of the fitted maximal effect.

SMILES	activity change, negative = inhibition	Potency
CC1(C)CC(=O)CC(=NCC(=O)O)C1	inconclusive: 3.83%	–
CCOc1ccccc1NS(=O)(=O)c1cccs1	inconclusive: 13.4%	–
O=S(=O)(c1ccc(Br)cc1)N1CCN(c2cc(-c3ccccc3)nc3ncnn23)CC1	inconclusive: -2.25%	–
O=C(O)CC1(CC(=O)Nc2ccc3ccccc3c2)CCCCC1	–	inconclusive: 20.6 µM [falling, partial curve]
Cc1cc(C)cc(N2CN=C3SCC(=O)N3C2)c1	inconclusive: 0.888%	–
CCn1cc(C(=O)NCC(OC)OC)c(=O)c2cc(S(=O)(=O)N3CCCC3)ccc21	inactive	–
CCn1c(/C=C/c2ccc(O)cc2)nc2ccccc2c1=O	–	inconclusive: 20 µM [falling, single point]
CCc1ccccc1NC(=O)/C(C#N)=C/c1ccc(Sc2ccccc2)o1	inactive	–
O=C(c1cn(Cc2ccccc2)nc1-c1ccccc1)N1CCN(c2ccccn2)CC1	inactive	–
O=C(CSC1CC(=O)N(CCc2ccccc2)C1=O)Nc1cccc(Cl)c1 (stereo unspecified)	inactive	–
COc1cccc(CNCCNC(=O)c2ccco2)c1OC	inconclusive: 8.61%	–
Cn1cc(CC(=O)N2CCN(c3ccc(Cl)cc3)CC2)c2ccccc21	inconclusive: -12.2%	–
Cc1ccc(NCc2ccco2)cc1C	inconclusive: 19%	–
Cc1ccc(Nc2ncnc3c2cnn3-c2ccccc2)c(C)c1	inactive	–
O=C(NCCc1c[nH]c2ccccc12)c1c(Cl)nc2sccn12	inconclusive: 8.24%	–
O=S(=O)(c1ccc(Cl)nc1)N(Cc1ccccc1)Cc1ccccc1	inconclusive: 1.35%	–
COC(=O)c1ccccc1S(=O)(=O)N1CCC(C(=O)NC2CCCCC2C)CC1 (stereo unspecified)	inconclusive: -0.0617%	–
O=C(CNC(=O)c1ccccc1Br)N/N=C/c1ccccc1O	inactive	–
CC(C)NC(=O)N1CC(c2ccccc2)C(c2ccc(Cl)cc2)=N1 (stereo unspecified)	inactive	–
COc1ccc(C(=O)N/C(=C/c2cccs2)c2nc3ccccc3[nH]2)cc1OC	inconclusive: -0.476%	–
O=C(Nn1c(O)c(C=C2N=c3ccccc3=N2)sc1=S)c1cccc(Cl)c1	–	inconclusive: 22.4 µM [falling, partial curve]
COc1cc(NC(=O)CN2CCN(c3ccccc3F)CC2)c(C)cc1[N+](=O)[O-]	inconclusive: -21.3%	–
COc1ccc(-n2c(=O)n(Cc3ccccc3)c(=O)c3[nH]cnc32)cc1	inconclusive: -14.5%	–
CCOC(=O)c1nc2ccccc2c(=O)[nH]1	inconclusive: -28.2%	–
CCCCCC(=O)NC(=S)NNC(=O)CC	inactive	–
COc1cccc(/C=C/C(=O)Nc2ccc3nc4n(c(=O)c3c2)CCCC4)c1OC	–	inconclusive: 35.5 µM [falling, single point]

Entries of single compounds from above.
COc1cccc(/C=C/C(=O)Nc2ccc3nc4n(c(=O)c3c2)CCCC4)c1OC reads Potency: inconclusive: 35.5 µM [falling, single point]
Cc1ccc(NCc2ccco2)cc1C reads activity change, negative = inhibition: inconclusive: 19%
